Measurements reported in PubChem BioAssay AID1159584 (Peter MacCallum Cancer Centre, 2016)
Screen: 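Genes whose loss is lethal only together with E-cadherin loss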 (primary screen). Cells: human MCF10A breast epithelial cells, parental and CDH1-null. Reagents: siRNA against human genes. Measurement: 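ATP luminescence (CellTiter-Glo) viability per line relative to mean mock wells over all plates, and the ratio of CDH1-null to parental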. Reading the numbers: CDH1-null / parental viability ratio: higher = CDH1-null cells survive relatively better than parental; CDH1-null viability vs mock: higher = more viable CDH1-null cells.
The whole screen tested about 18,000 reagents; below is a random part of them. Further read-outs or replicates are left out here. Not given: the amount of reagent, the time to read-out.

gene symbol	CDH1-null / parental viability ratio	CDH1-null viability vs mock (fraction of mock)
PFN1 (profilin 1)	1.22	0.55
IRF2BP1 (interferon regulatory factor 2 binding protein 1)	0.99	0.94
RWDD1 (RWD domain containing 1)	0.85	0.64
BACH2 (BACH transcriptional regulator 2)	0.95	0.87
ZMIZ1 (zinc finger MIZ-type containing 1)	0.96	0.75
OR10R2 (olfactory receptor family 10 subfamily R member 2)	1.25	1.06
TAF12 (TATA-box binding protein associated factor 12)	0.88	0.76
SDHD (succinate dehydrogenase complex subunit D)	1.07	0.91
ADCY4 (adenylate cyclase 4)	0.92	0.81
NDUFAB1 (NADH:ubiquinone oxidoreductase subunit AB1)	1.22	0.88
HSD3B2	1.01	1.04
TBX1 (T-box transcription factor 1)	1.38	1.19
PRND (prion like protein doppel)	1.28	0.46
UBE2B (ubiquitin conjugating enzyme E2 B)	1.11	1.02
THOC6 (THO complex subunit 6)	0.94	0.91
CCDC149 (coiled-coil domain containing 149)	0.87	0.61
DDRGK1 (DDRGK domain containing 1)	0.9	0.69
NGB (neuroglobin)	0.68	0.45
PCED1B (PC-esterase domain containing 1B)	1.24	0.88
PRDX5 (peroxiredoxin 5)	0.97	0.98
ZNF350 (zinc finger protein 350)	0.91	0.78
DCTN6 (dynactin subunit 6)	1.21	0.63
INHBC (inhibin subunit beta C)	1.11	1.1
C16orf89 (chromosome 16 open reading frame 89)	1	0.88
STMN2 (stathmin 2)	0.82	0.36
FGFR4 (fibroblast growth factor receptor 4)	1.12	0.94
SLC25A30	0.98	0.92
TCF25 (TCF25 ribosome quality control complex subunit)	1.08	0.8

Sorted by “CDH1-null / parental viability ratio” (descending): 4 of the entries above
gene symbol	CDH1-null / parental viability ratio	CDH1-null viability vs mock (fraction of mock)
DCTN6 (dynactin subunit 6)	1.21	0.63
INHBC (inhibin subunit beta C)	1.11	1.1
C16orf89 (chromosome 16 open reading frame 89)	1	0.88
STMN2 (stathmin 2)	0.82	0.36
